Source: US20210047417A1

Experiments:
[1] = target: Recombinant MICA*02 protein; assay: ELISA, antigen coated, PDI-1 0-1 µg/ml (legend of FIG. 2)
[2] = target: Recombinant MICA*04 protein; assay: as above
[3] = target: Recombinant MICA*09 protein; assay: as above
[4] = target: Recombinant MICA*01 protein (Homo sapiens (Human)); assay: as above
[5] = target: Recombinant MICA*08 protein; assay: as above
[6] = target: MICA*04 allele expressed on TRAMP-C2 cells (TC2-MICA-04); assay: flow cytometry on TRAMP-C2 cells stably expressing MICA*04, 500 ng PDI-1 in 100 µl, PE anti-mouse IgG secondary
[7] = target: MICA*04 allele expressed on TRAMP-C2 cells (TC2-MICA-04); assay: cell staining / flow cytometry (legend of FIG. 3)

Measured: binding

B1: Anti-MICA/B Monoclonal Antibody (PDI-1) (antibody, mouse IgG2a, kappa, V domains shown)
VH: QIQLVQSGPELKKSGETVKISCKAFGYTFTNYGMNWVKQAPGKGLKWMGWINTYTGEPTYADDFKGRFAFSLETSASTAYLQINHLKNEDTATYFCARNYGNYLFDYWGQGTTLTVSS
VL: DIQMTQTTSSLSASLGDRVTISCSASQGISNYLNWYQQKPDGTLKLLIQYTSLLHSGVPSRFSGSGSGTEYSLTISNLEPEDIATYFCQQYSKFPRTFGGGTKLEIKR
binds: all assays above

Results are given in words; binding and its absence hold for the method and conditions named. A result given as binding can be weak or reduced; the word gives no strength.
